# Results of single-concentration screens

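Assay of Toxoplasma gondii numbers, read through their beta-galactosidase reporter with a colour substrate. Compounds at 10 µM. Higher reads as fewer parasites (inferred from which compounds were picked for retests). About 67,000 compounds were tested under these conditions; 0.38% (about 260) showed 50% or more at least once.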

Values are the deposited “Percent Effect”, in %. How 0% and 100% were set is not recorded. Most values in the screen are low, and negative values occur. This is an unselected part of the compounds tested.

SMILES | percent effect
CCOc1ccccc1-n1c(C2CC2)n[nH]c1=O | 10.88
O=C(NCc1nncn1C1CC1)c1ccccc1OCC1CC1 | 5.622
CC(C)(C)CN(CCC#N)C(=O)c1cccc(CC#N)c1 | -3.296
Cc1cnn(C2CCCN(C(=O)CN(C)c3cnccn3)C2)c1 (centres undefined) | 17.83
O=C(O)C(F)(F)F.[H][C@@]12CCN(CC3CCOCC3)C[C@]1(c1nc(C)no1)CCO2 | 2.671
Cn1cc(N2CC3(CCN(CC4CCOCC4)CC3)OCC2=O)cn1.O=C(O)C(F)(F)F | 0.1195
CN(C)C(=O)CCC1CCCN(Cc2ccc(-c3cccnc3)cc2)C1 (centres undefined) | 5.148
O=C(c1ccc[nH]1)N1CCc2ncc(Cn3cccn3)n2CC1 | -2.833
CCOC(=O)c1n[nH]cc1-c1cncn1CCn1nc(C)c(C)c1C.Cl | -3.126
O=C(O)C(F)(F)F.O=C(O)C(F)(F)F.[H][C@@]12CN(Cc3csc(C)n3)CCO[C@]1([H])CN(Cc1nccs1)C2 | 1.486
COCC1c2c(cnn2CC2CC2)CCN1Cc1nccs1.O=C(O)C(F)(F)F.O=C(O)C(F)(F)F (centres undefined) | 0.9615
O=C(NC1=NCCS1)C1CSCN1C(=O)C1CCCC1 (centres undefined) | -7.871
CC(C)c1cc(O)nc(C2CCCN2C(=O)C(C)(C)C)n1 (centres undefined) | -10.04
COCCNC(=O)Cn1cc(NC(=O)c2cc(Cl)c(Cl)n2C)cn1 | 13.83
COc1ccc(C2=CCN(C(=O)CN(CC(N)=O)C(C)C)CC2)cc1 | 1.552
Cn1ccc2c(NC(=O)Cn3ncc4c(c3=O)CCCCC4)cccc21 | -0.4393
Cc1cnn(CC2CN(CC(=O)N(C)Cc3cnn(C)c3)CCO2)c1 (centres undefined) | -6.506
Cc1cccnc1N1CC2(CCN(Cc3cccnc3)C2)C1.O=C(O)C(F)(F)F.O=C(O)C(F)(F)F.O=C(O)C(F)(F)F | -5.141
CC(C)CN(Cc1ccccn1)Cc1ccccc1OCC(=O)O | -9.405
Nc1nccnc1C(=O)N1CC(OCc2cccc3ccccc23)C1 | 14.71
[H][C@]12CN(C(=O)CC3CCCC3)[C@]([H])(CN1)C2 | 6.842
O=C(Nc1nnc(C2CC2)s1)NC1CCOc2ccccc21 (centres undefined) | 15.69
Cn1cc(-c2nc(C3CCN(CC4CC4)CC3)cc3c2ncn3C)cn1 | -4.309
CSC1(CNC(=O)NC(C)c2ccc(F)cc2)CCOCC1 (centres undefined) | -2.839
CC(C)[C@@H]1CN(C2CCN(Cc3ccccc3)CC2)C[C@H]1NS(C)(=O)=O | 9.638
Cc1nnc(SCC(=O)c2cc3c(cc2Cl)NC(=O)C3)s1 | -6.725
Cc1noc(C2CCCN(C(=O)c3ccc(F)cc3F)C2)n1 (centres undefined) | -1.158
O=C(c1ccc(Sc2ccccn2)cc1)N1CCCSCC1 | -11.54
CC(=O)N1CCCN(C(=O)c2ccc(Sc3ccccn3)cc2)CC1 | -8.826
Cl.c1ccc(CN2CCNCC(Cc3cnccn3)C2)cc1 (centres undefined) | -0.5634
O=C1CCC2(CCN(Cc3ccc(F)cc3Cl)CC2)CN1CCO | -1.269
Cc1cnn(CCCNC2Cc3ccccc3C2)c1 | -6.202
CC(C)n1nccc1CN1Cc2nccn2CC1c1ccccc1 (centres undefined) | 9.864
COc1cccc(CNC(=O)C(C)N2CC(n3nc(C)cc3C)C2)c1 (centres undefined) | -6.288
Cc1cncc(Oc2ccc(CO)cc2)n1 | 4.818
COCCCNC(=O)C1CCN(CC2(O)CCC(C)CC2)CC1 (centres undefined) | 17.95
CNS(=O)(=O)CC(=O)NC(C)Cc1ccccc1Br (centres undefined) | -15.39
O=C1CCCCN1CSc1nnnn1-c1ccc(Cl)cc1 | 1.393
Cc1cc(C)n2cc(CN3CCCC3Cn3nc(C)nc3C)nc2n1 (centres undefined) | 7.073
Cc1ccc(OCCN(C)C(=O)NC(C)c2nncn2C)cc1 (centres undefined) | -1.258
[H][C@@]12CCN(Cc3cnn(C)c3)C[C@@]1([H])O[C@@H](c1nc(C)cs1)C2 | -2.23
CCc1ccc(CN2CCC(=O)N(CC3CC3)C(C(C)C)C2)nc1 (centres undefined) | 3.245
O=C(O)C(F)(F)F.O=C1N(CC2CC2)CCC12CCN(Cc1ccoc1)CC2 | -19.02
CN1C(=O)CC(C(=O)O)C12CCN(c1ccc3ccccc3n1)CC2 (centres undefined) | -5.282
Cc1nc(NCc2noc(C3CCCO3)n2)c2ccsc2n1 (centres undefined) | -1.452
CCC(OC)C(=O)N1CCc2nc(NC)nc(C(=O)N3CCCC3)c2C1 (centres undefined) | 7.181
CSCCCN1C[C@H](NC(=O)c2cnn(C)c2)[C@@H](C2CC2)C1 | 4.681
O=C(CSC1CCCC1)N1CCN(c2ccc(-n3cncn3)nn2)CC1 | 14.54
Cc1nn(C)c(C)c1NC(=O)CN1CCc2c(nc(C3CC3)n2C)C1 | 5.309
CN(C)c1nccc(N(C)Cc2nc3ccccc3n2C)n1 | -3.471
COCCOc1ccccc1C(=O)N1CCCCC1c1nccs1 (centres undefined) | -1.206
CC(C)N1CCN(C(=O)Nc2cnc3c(cnn3C(C)C)c2)CC1 | -1.883
COc1ccc(NC(=O)C2OC(c3cccs3)=NN2C(C)=O)cc1 (centres undefined) | -5.781
CCN1CC(C(=O)N(C)Cc2ccon2)CC1=O (centres undefined) | 0.9038
O=C(O)C(F)(F)F.O=C(O)C(F)(F)F.[H][C@@]12CN(Cc3cccnc3)C[C@]1([H])CN(C(=O)c1cnc(C)cn1)C2 | 5.291
CN1CC(NC(=O)CCOc2cccc(Cl)c2)CC1=O (centres undefined) | -3.236
CCc1n[nH]c(NC(=O)c2ccc(Cl)cn2)c1Br | -1.932
CCOC1CCCN(C(=O)Nc2cnn(CC(F)F)c2)C1 (centres undefined) | -6.154
COC(=O)CCNC(=O)c1cccc(C(=O)N(C)c2ccccc2)c1 | -1.529

The first 4 entries again:

* CCOc1ccccc1-n1c(C2CC2)n[nH]c1=O : 10.88%
* O=C(NCc1nncn1C1CC1)c1ccccc1OCC1CC1 : 5.622%
* CC(C)(C)CN(CCC#N)C(=O)c1cccc(CC#N)c1 : -3.296%
* Cc1cnn(C2CCCN(C(=O)CN(C)c3cnccn3)C2)c1 (centres undefined) : 17.83%

Measurements from “University of Dundee, Small-Polar-MMV Screening Library” (2021), ChEMBL document CHEMBL3988442.